# The supplement of paper PMC8728848
# This is one part of the list.
# B1: Blon2355mut (Bifidobacterium longum) (protein)
# chain: MVQEPTLEWHVIPEPTNVEPLVGTCSLPLSGTVVEQRGADDAEAVFARQLVDDIKRVCGGRWQVASGEVQREVTLRTSPSLDDWSYVLEVSPDGVVITGSGFEGVRDGVQTLRQIIRQIGLTIPCMVIRDRPAFSTRGYYLDVTRGRVPSMAWLKSWVDRLCFYKYNQFQLYIEHTFQFNGLSEVWRGADPLTSSDILELDSYCAARGIELVPSVSTFGHHYTALRTRQLRDLGEFPEDADRPFSLIERMTHHTLNITDERSYEFSTSLIDELMPLFRSRKFNICANETFDLGKGRSKQESAKRGVGAMYADFVERLCRHVDDRGHDVMVWADVALEHPEIIDTLPKNITWLNWQYEPNVDDGTTAALADAGATQMVCPAVWCWNALIPRIDDAWNNITRMARHGRAHDVSGMLVTDWGDFGHVNDPRMSVPGMIFGAQQSWNPDAELSEVDMLSRISTIEYGDHTGSVVGALRGASAKGGFSWSDLVTYLELDDGRGGCNTEIVRVMGCLEAYRNDLPQSGQARLADARVSMLRTLRDSILAGRELNGKLDDAAKDITQLLRVAGDPSSAAVWSLAIDGQRLLNRVGLALLAAHGVVRQDEAGIDAAKLADELECWTEQYSRLWHEVSRQSELARIQHVVWRAADVLRSI
# How the values were obtained:
# Experiment in all cases: glycan array binding signal (z-score within array); higher = stronger binding
# Conditions in all cases: glycan notation: IUPAC condensed, linker removed
# [1] = target: Fuc(a1-2)Gal
# In short: (§1)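 The Consortium for Functional Glycomics database supplied 3228 glycan arrays, of which those lacking an available protein sequence were dropped. The binding signal, a within-array Z-score, was averaged across arrays of the same protein sequence and across linkers. Negative scores can be read as non-binding.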
# [2] = target: Fuc(a1-2)Gal(b1-3)GalNAc
# In short: as §1
# [3] = target: Fuc(a1-2)Gal(b1-3)GalNAc(a1-3)[Fuc(a1-2)]Gal(b1-4)Glc
# In short: as §1
# [4] = target: Fuc(a1-2)Gal(b1-3)GalNAc(a1-3)[Fuc(a1-2)]Gal(b1-4)GlcNAc
# In short: as §1
# [5] = target: Fuc(a1-2)Gal(b1-3)GalNAc(b1-3)Gal
# In short: as §1
# [6] = target: Fuc(a1-2)Gal(b1-3)GalNAc(b1-3)Gal(a1-4)Gal(b1-4)Glc
# In short: as §1
# [7] = target: Fuc(a1-2)Gal(b1-3)GalNAc(b1-4)[Neu5Ac(a2-3)]Gal(b1-4)Glc
# In short: as §1
# [8] = target: Fuc(a1-2)Gal(b1-3)GlcNAc
# In short: as §1
# [9] = target: Fuc(a1-2)Gal(b1-3)GlcNAc(b1-2)Man(a1-3)[Fuc(a1-2)Gal(b1-3)GlcNAc(b1-2)Man(a1-6)]Man(b1-4)GlcNAc(b1-4)GlcNAc
# In short: as §1
# [10] = target: Fuc(a1-2)Gal(b1-3)GlcNAc(b1-2)Man(a1-3)[Fuc(a1-2)Gal(b1-3)GlcNAc(b1-2)Man(a1-6)]Man(b1-4)GlcNAc(b1-4)[Fuc(a1-6)]GlcNAc
# In short: as §1
# [11] = target: Fuc(a1-2)Gal(b1-3)GlcNAc(b1-3)Gal(b1-4)Glc
# In short: as §1
# [12] = target: Fuc(a1-2)Gal(b1-3)GlcNAc(b1-3)GalNAc
# In short: as §1
# [13] = target: Fuc(a1-2)Gal(b1-3)GlcNAc(b1-3)[Fuc(a1-2)Gal(b1-3)GlcNAc(b1-6)]GalNAc
# In short: as §1
# [14] = target: Fuc(a1-2)Gal(b1-3)GlcNAc(b1-3)[Gal(b1-4)GlcNAc(b1-6)]Gal(b1-4)Glc
# In short: as §1
# [15] = target: Fuc(a1-2)Gal(b1-3)GlcNAc(b1-3)[Neu5Ac(a2-6)Gal(b1-4)GlcNAc(b1-6)]Gal(b1-4)Glc
# In short: as §1
# [16] = target: Fuc(a1-2)Gal(b1-3)GlcNAc6S
# In short: as §1
# [17] = target: Fuc(a1-2)Gal(b1-3)[Fuc(a1-4)]GlcNAc
# In short: as §1
# [18] = target: Fuc(a1-2)Gal(b1-3)[Fuc(a1-4)]GlcNAc(b1-2)Man(a1-3)[Fuc(a1-2)Gal(b1-3)[Fuc(a1-4)]GlcNAc(b1-2)Man(a1-3)]Man(b1-4)GlcNAc(b1-4)GlcNAc
# In short: as §1
# [19] = target: Fuc(a1-2)Gal(b1-3)[Fuc(a1-4)]GlcNAc(b1-2)Man(a1-3)[Fuc(a1-2)Gal(b1-3)[Fuc(a1-4)]GlcNAc(b1-2)Man(a1-6)]Man(b1-4)GlcNAc(b1-4)[Fuc(a1-6)]GlcNAc(b1-4)[Fuc(a1-6)]GlcNAc
# In short: as §1
# [20] = target: Fuc(a1-2)Gal(b1-3)[Fuc(a1-4)]GlcNAc(b1-3)[Fuc(a1-3)[Gal(b1-4)]GlcNAc(b1-6)]Gal(b1-4)Glc
# In short: as §1
# [21] = target: Fuc(a1-2)Gal(b1-3)[Fuc(a1-4)]GlcNAc(b1-3)[Gal(b1-4)GlcNAc(b1-6)]Gal(b1-4)Glc
# In short: as §1
# [22] = target: Fuc(a1-2)Gal(b1-4)Glc
# In short: as §1
# [23] = target: Fuc(a1-2)Gal(b1-4)Glc6S
# In short: as §1
# [24] = target: Fuc(a1-2)Gal(b1-4)GlcNAc
# In short: as §1
# [25] = target: Fuc(a1-2)Gal(b1-4)GlcNAc(b1-2)Man
# In short: as §1
# [26] = target: Fuc(a1-2)Gal(b1-4)GlcNAc(b1-2)Man(a1-3)[Fuc(a1-2)Gal(b1-4)GlcNAc(b1-2)Man(a1-6)]Man(b1-4)GlcNAc(b1-4)GlcNAc
# In short: as §1
# [27] = target: Fuc(a1-2)Gal(b1-4)GlcNAc(b1-2)Man(a1-3)[Fuc(a1-2)Gal(b1-4)GlcNAc(b1-2)Man(a1-6)]Man(b1-4)GlcNAc(b1-4)[Fuc(a1-6)]GlcNAc
# In short: as §1
# [28] = target: Fuc(a1-2)Gal(b1-4)GlcNAc(b1-2)[Fuc(a1-2)Gal(b1-4)GlcNAc(b1-4)]Man(a1-3)[Fuc(a1-2)Gal(b1-4)GlcNAc(b1-2)Man(a1-6)]Man(b1-4)GlcNAc(b1-4)GlcNAc
# In short: as §1
# [29] = target: Fuc(a1-2)Gal(b1-4)GlcNAc(b1-3)Gal(b1-4)GlcNAc
# In short: as §1
# [30] = target: Fuc(a1-2)Gal(b1-4)GlcNAc(b1-3)Gal(b1-4)GlcNAc(b1-2)Man(a1-3)[Fuc(a1-2)Gal(b1-4)GlcNAc(b1-3)Gal(b1-4)GlcNAc(b1-2)Man(a1-6)]Man(b1-4)GlcNAc(b1-4)GlcNAc
# In short: as §1
binder,measurement,setting,value
B1,glycan array binding signal (z-score),[1],-0.707
same,glycan array binding signal (z-score),[2],0.083
same,glycan array binding signal (z-score),[3],-0.486
same,glycan array binding signal (z-score),[4],0.861
same,glycan array binding signal (z-score),[5],4.04
same,glycan array binding signal (z-score),[6],0.339
same,glycan array binding signal (z-score),[7],0.389
same,glycan array binding signal (z-score),[8],-0.006
same,glycan array binding signal (z-score),[9],2.69
same,glycan array binding signal (z-score),[10],-0.681
same,glycan array binding signal (z-score),[11],-0.619
same,glycan array binding signal (z-score),[12],-0.596
same,glycan array binding signal (z-score),[13],1.74
same,glycan array binding signal (z-score),[14],-1.38
same,glycan array binding signal (z-score),[15],-0.64
same,glycan array binding signal (z-score),[16],-0.357
same,glycan array binding signal (z-score),[17],0.165
same,glycan array binding signal (z-score),[18],-0.498
same,glycan array binding signal (z-score),[19],-0.505
same,glycan array binding signal (z-score),[20],-1.14
same,glycan array binding signal (z-score),[21],-0.739
same,glycan array binding signal (z-score),[22],0.628
same,glycan array binding signal (z-score),[23],1.13
same,glycan array binding signal (z-score),[24],0.12
same,glycan array binding signal (z-score),[25],-0.511
same,glycan array binding signal (z-score),[26],-1.28
same,glycan array binding signal (z-score),[27],0.088
same,glycan array binding signal (z-score),[28],-0.562
same,glycan array binding signal (z-score),[29],0.464
same,glycan array binding signal (z-score),[30],0.87

# A section from the list above, as a working copy:
binder,measurement,setting,value
B1,glycan array binding signal (z-score),[13],1.74
same,glycan array binding signal (z-score),[14],-1.38
